The results in this text go back to patent publication US12521402B2, “Biomarker and drug combinations for heart failure prediction” (Endothelium Scanning Nanotechnology Limited, priority 2022, dated 2026).

The data set can be described thus: Saliva proteomics: biomarker quantification by mass spectrometry SWATH in participants at risk of heart failure vs controls. The conditions noted are these: for AtRisk average: 'at risk' of heart failure group mean; for AtRisk average / Control average: mass spectrometry SWATH quantification; for Control average: control group mean. Also on record: species or system human.

Setting [1] is: differential expression (fold) control vs 'at risk', printed as larger/smaller average whatever the direction.
[2] abbreviates: differential expression (fold) control vs 'at risk' group, saliva.

B1: MGP (protein, UniProt P08493 20-96, looked up)
Matrix Gla protein: YESHESMESYELNPFINRRNANTFISPQQRWRAKVQERIRERSKPVHELNREACDDYRLCERYAMVYGYNAAYNRYF
For the molecule B1, the “Control vs Risk” value under setting [1] was 2.60. Under “saliva”, the AtRisk average is reported as 799,600 ng/ml and the Control average was 307,281 ng/ml.

B2: PADI3 (protein, UniProt Q9ULW8 1-664, looked up)
Protein-arginine deiminase …: MSLQRIVRVSLEHPTSAVCVAGVETLVDIYGSVPEGTEMFEVYGTPGVDIYISPNMERGRERADTRRWRFDATLEIIVVMNSPSNDLNDSHVQISYHSSHEPLPLAYAVLYLTCVDISLDCDLNCEGRQDRNFVDKRQWVWGPSGYGGILLVNCDRDDPSCDVQDNCDQHVHCLQDLEDMSVMVLRTQGPAALFDDHKLVLHTSSYDAKRAQVFHICGPEDVCEAYRHVLGQDKVSYEVPRLHGDEERFFVEGLSFPDAGFTGLISFHVTLLDDSNEDFSASPIFTDTVVFRVAPWIMTPSTLPPLEVYVCRVRNNTCFVDAVAELARKAGCKLTICPQAENRNDRWIQDEMELGYVQAPHKTLPVVFDSPRNGELQDFPYKRILGPDFGYVTREPRDRSVSGLDSFGNLEVSPPVVANGKEYPLGRILIGGNLPGSSGRRVTQVVRDFLHAQKVQPPVELFVDWLAVGHVDEFLSFVPAPDGKGFRMLLASPGACFKLFQEKQKCGHGRALLFQGVVDDEQVKTISINQVLSNKDLINYNKFVQSCIDWNREVLKRELGLAECDIIDIPQLFKTERKKATAFFPDLVNMLVLGKHLGIPKPFGPIINGCCCLEEKVRSLLEPLGLHCTFIDDFTPYHMLHGEVHCGTNVCRKPFSFKWWNMVP
Regarding B2, under setting [2], the “Control vs Risk” value is recorded as 2.50. For the same molecule, for the setting “saliva, 20 samples”, the AtRisk average is reported as 100,865 ng/ml and the Control average was 251,948 ng/ml.

B3: SLPI (protein, UniProt P03973 26-132, looked up)
Antileukoproteinase: SGKSFKAGVCPPKKSAQCLRYKKPECQSDWQCPGKKRCCPDTCGIKCLDPVDTPNPTRRKPGKCPVTYGQCLMLNPPNFCEMDGQCKRDLKCCMGMCGKSCVSPVKA
With B3, the “Control vs Risk” value under setting [1] was determined as 10.46. In addition, where the note is “saliva”, the AtRisk average is given as 448,243 ng/ml and the Control average was 4,688,764 ng/ml.

B4: GALT5 (protein, UniProt Q7Z7M9 1-940, looked up)
Polypeptide …: MNRIRKFFRGSGRVLAFIFVASVIWLLFDMAALRLSFSEINTRVIKEDIVRRERIGFRVQPDQGKIFYSSIKEMKPPLRGHGKGAWGKENVRKTEESVLKVEVDLDQTQRERKMQNALGRGKVVPLWHPAHLQTLPVTPNKQKTDGRGTKPEASSHQGTPKQTTAQGAPKTSFIAAKGTQVVKISVHMGRVSLKQEPRKSHSPSSDTSKLAAERDLNVTISLSTDRPKQRSQAVANERAHPASTAVPKSGEAMALNKTKTQSKEVNANKHKANTSLPFPKFTVNSNRLRKQSINETPLGSLSKDDGARGAHGKKLNFSESHLVIITKEEEQKADPKEVSNSKTKTIFPKVLGKSQSKHISRNRSEMSSSSLAPHRVPLSQTNHALTGGLEPAKINITAKAPSTEYNQSHIKALLPEDSGTHQVLRIDVTLSPRDPKAPGQFGRPVVVPHGKEKEAERRWKEGNFNVYLSDLIPVDRAIEDTRPAGCAEQLVHNNLPTTSVIMCFVDEVWSTLLRSVHSVINRSPPHLIKEILLVDDFSTKDYLKDNLDKYMSQFPKVRILRLKERHGLIRARLAGAQNATGDVLTFLDSHVECNVGWLEPLLERVYLSRKKVACPVIEVINDKDMSYMTVDNFQRGIFVWPMNFGWRTIPPDVIAKNRIKETDTIRCPVMAGGLFSIDKSYFFELGTYDPGLDVWGGENMELSFKVWMCGGEIEIIPCSRVGHIFRNDNPYSFPKDRMKTVERNLVRVAEVWLDEYKELFYGHGDHLIDQGLDVGNLTQQRELRKKLKCKSFKWYLENVFPDLRAPIVRASGVLINVALGKCISIENTTVILEDCDGSKELQQFNYTWLRLIKCGEWCIAPIPDKGAVRLHPCDNRNKGLKWLHKSTSVFHPELVNHIVFENNQQLLCLEGNFSQKILKVAACDPVKPYQKWKFEKYYEA
Regarding B4, the “Control vs Risk” value under setting [1] is on record as 9.75. Also, for the setting “saliva”, the AtRisk average is 17,606 ng/ml and the Control average is given as 171,663 ng/ml.

B5: FCL (protein, UniProt Q13630 1-321, looked up)
GDP-L-fucose synthase: MGEPQGSMRILVTGGSGLVGKAIQKVVADGAGLPGEDWVFVSSKDADLTDTAQTRALFEKVQPTHVIHLAAMVGGLFRNIKYNLDFWRKNVHMNDNVLHSAFEVGARKVVSCLSTCIFPDKTTYPIDETMIHNGPPHNSNFGYSYAKRMIDVQNRAYFQQYGCTFTAVIPTNVFGPHDNFNIEDGHVLPGLIHKVHLAKSSGSALTVWGTGNPRRQFIYSLDLAQLFIWVLREYNEVEPIILSVGEEDEVSIKEAAEAVVEAMDFHGEVTFDTTKSDGQFKKTASNSKLRTYLPDFRFTPFKQAVKETCAWFTDNYEQARK
For the molecule B5, under setting [1], the “Control vs Risk” value is 2.70. For the setting “saliva”, the AtRisk average is 100,529 ng/ml and the Control average is recorded as 37,272 ng/ml.

B6: RASF2 (protein, UniProt P50749 1-326, looked up)
Ras association …: MDYSHQTSLVPCGQDKYISKNELLLHLKTYNLYYEGQNLQLRHREEEDEFIVEGLLNISWGLRRPIRLQMQDDNERIRPPPSSSSWHSGCNLGAQGTTLKPLTVPKVQISEVDAPPEGDQMPSSTDSRGLKPLQEDTPQLMRTRSDVGVRRRGNVRTPSDQRRIRRHRFSINGHFYNHKTSVFTPAYGSVTNVRINSTMTTPQVLKLLLNKFKIENSAEEFALYVVHTSGEKQKLKATDYPLIARILQGPCEQISKVFLMEKDQVEEVTYDVAQYIKFEMPVLKSFIQKLQEEEDREVKKLMRKYTVLRLMIRQRLEEIAETPATI
Regarding B6, under setting [1], the “Control vs Risk” value was 2.52. Further, for the setting “saliva”, the AtRisk average is given as 64,961 ng/ml and the Control average is recorded as 25,756 ng/ml.

B7: CYTB (protein, UniProt P04080 1-98, looked up)
Cystatin-B: MMCGAPSATQPATAETQHIADQVRSQLEEKENKKFPVFKAVSFKSQVVAGTNYFIKVHVGDEDFVHLRVFQSLPHENKPLTLSNYQTNKAKHDELTYF
B7: under setting [2], the “Control vs Risk” value stood at 2.46. In addition, for the setting “saliva, 20 samples”, the AtRisk average was 57,505,633 ng/ml and the Control average is 23,329,698 ng/ml.

B8: I36RA (protein, UniProt Q9UBH0 2-155, looked up)
Interleukin-36 receptor …: VLSGALCFRMKDSALKVLYLHNNQLLAGGLHAGKVIKGEEISVVPNRWLDASLSPVILGVQGGSQCLSCGVGQEPTLTLEPVNIMELYLGAKESKSFTFYRRDMGLTSSFESAAYPGWFLCTVPEADQPVRLTQLPENGGWNAPITDFYFQQCD
For the molecule B8, under setting [1], the “Control vs Risk” value is 2.73. Under “saliva”, the AtRisk average is 260,231 ng/ml and the Control average is given as 95,212 ng/ml.

B9: ECI1 (protein, UniProt P42126 42-302, looked up)
Enoyl-CoA delta isomerase 1, …: FGSQRVLVEPDAGAGVAVMKFKNPPVNSLSLEFLTELVISLEKLENDKSFRGVILTSDRPGVFSAGLDLTEMCGRSPAHYAGYWKAVQELWLRLYQSNLVLVSAINGACPAGGCLVALTCDYRILADNPRYCIGLNETQLGIIAPFWLKDTLENTIGHRAAERALQLGLLFPPAEALQVGIVDQVVPEEQVQSTALSAIAQWMAIPDHARQLTKAMMRKATASRLVTQRDADVQNFVSFISKDSIQKSLQMYLERLKEEKG
As to B9, the “Control vs Risk” value under setting [1] turned out to be 2.55. For the setting “saliva”, the AtRisk average is recorded as 46,141 ng/ml and the Control average is listed as 117,742 ng/ml.
